Results are given in words; binding and its absence hold for the method and conditions named. For some assays here: Binding seen in cells or lysates may run through a third protein. Some binding calls cover weakened binding; strength is not graded here.

Chains of the proteins cited; added tags and fusions are not shown. Lines headed by an entry give the natural chain unless they say otherwise; changes in a name come on top. A line that says so, or that is headed by a name, gives the form on record, which may keep a tag or linker.
UniProt P31749: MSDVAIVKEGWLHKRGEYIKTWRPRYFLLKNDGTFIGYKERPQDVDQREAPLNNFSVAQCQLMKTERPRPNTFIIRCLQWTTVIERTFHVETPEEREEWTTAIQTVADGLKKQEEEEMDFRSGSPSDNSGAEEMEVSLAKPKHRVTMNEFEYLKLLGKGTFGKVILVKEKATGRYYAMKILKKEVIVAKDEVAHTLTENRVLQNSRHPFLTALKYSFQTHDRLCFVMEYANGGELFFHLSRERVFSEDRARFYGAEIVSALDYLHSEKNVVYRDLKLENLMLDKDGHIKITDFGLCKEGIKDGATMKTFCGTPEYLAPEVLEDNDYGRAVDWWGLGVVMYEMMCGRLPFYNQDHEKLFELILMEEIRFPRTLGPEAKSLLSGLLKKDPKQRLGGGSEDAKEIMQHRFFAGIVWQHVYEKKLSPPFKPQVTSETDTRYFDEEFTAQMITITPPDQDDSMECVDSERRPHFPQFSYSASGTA
UniProt P10275: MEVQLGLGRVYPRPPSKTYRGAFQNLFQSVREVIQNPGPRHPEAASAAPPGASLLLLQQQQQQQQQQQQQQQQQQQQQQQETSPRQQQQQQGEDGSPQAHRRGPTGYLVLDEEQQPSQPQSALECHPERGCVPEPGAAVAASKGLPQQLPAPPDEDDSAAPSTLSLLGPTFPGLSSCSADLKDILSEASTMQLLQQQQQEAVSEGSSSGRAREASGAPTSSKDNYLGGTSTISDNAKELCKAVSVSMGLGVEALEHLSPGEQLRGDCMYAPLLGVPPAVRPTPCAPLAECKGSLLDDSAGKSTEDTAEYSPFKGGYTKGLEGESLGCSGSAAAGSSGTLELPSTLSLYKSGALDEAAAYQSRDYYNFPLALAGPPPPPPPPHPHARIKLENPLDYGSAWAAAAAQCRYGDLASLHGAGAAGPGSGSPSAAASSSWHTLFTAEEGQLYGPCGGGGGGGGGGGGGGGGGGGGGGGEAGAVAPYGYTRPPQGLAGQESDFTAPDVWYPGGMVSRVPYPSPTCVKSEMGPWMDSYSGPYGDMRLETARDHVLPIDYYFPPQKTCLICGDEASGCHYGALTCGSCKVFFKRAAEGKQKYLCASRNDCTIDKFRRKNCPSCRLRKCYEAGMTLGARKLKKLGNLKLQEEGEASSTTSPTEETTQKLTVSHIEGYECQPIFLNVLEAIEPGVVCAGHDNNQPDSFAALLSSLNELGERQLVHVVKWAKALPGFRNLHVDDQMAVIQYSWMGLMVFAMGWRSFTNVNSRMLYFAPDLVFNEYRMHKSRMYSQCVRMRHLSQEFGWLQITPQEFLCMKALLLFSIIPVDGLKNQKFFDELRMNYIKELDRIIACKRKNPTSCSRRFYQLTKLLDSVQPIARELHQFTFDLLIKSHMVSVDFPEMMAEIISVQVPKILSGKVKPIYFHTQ
UniProt Q07912: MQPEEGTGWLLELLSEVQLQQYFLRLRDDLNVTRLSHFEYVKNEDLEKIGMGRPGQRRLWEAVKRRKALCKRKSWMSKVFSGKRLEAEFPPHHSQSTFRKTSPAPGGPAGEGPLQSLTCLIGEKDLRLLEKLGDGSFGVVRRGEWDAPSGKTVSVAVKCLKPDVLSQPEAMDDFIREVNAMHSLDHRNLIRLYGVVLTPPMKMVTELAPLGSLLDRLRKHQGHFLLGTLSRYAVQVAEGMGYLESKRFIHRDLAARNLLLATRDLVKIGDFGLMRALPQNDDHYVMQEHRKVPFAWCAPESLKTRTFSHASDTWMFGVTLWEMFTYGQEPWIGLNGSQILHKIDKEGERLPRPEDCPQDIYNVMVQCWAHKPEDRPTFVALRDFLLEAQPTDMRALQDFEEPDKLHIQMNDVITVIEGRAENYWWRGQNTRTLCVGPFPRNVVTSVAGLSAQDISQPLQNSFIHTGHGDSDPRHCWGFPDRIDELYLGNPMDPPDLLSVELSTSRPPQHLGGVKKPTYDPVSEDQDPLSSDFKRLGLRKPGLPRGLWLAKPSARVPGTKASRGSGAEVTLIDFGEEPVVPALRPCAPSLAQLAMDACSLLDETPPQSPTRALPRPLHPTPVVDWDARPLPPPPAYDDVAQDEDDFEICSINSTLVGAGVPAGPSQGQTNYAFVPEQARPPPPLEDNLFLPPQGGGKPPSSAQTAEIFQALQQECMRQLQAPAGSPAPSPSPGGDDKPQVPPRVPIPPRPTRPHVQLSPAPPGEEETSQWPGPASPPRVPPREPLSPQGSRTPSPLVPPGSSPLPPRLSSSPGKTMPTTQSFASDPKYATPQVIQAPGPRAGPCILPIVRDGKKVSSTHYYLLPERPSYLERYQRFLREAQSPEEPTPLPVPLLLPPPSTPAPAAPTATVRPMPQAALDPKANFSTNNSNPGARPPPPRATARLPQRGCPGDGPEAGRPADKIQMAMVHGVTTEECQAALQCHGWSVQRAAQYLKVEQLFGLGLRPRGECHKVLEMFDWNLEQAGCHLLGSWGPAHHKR
activated Ack1 (caAck, L487F mutant) (Q07912, form named): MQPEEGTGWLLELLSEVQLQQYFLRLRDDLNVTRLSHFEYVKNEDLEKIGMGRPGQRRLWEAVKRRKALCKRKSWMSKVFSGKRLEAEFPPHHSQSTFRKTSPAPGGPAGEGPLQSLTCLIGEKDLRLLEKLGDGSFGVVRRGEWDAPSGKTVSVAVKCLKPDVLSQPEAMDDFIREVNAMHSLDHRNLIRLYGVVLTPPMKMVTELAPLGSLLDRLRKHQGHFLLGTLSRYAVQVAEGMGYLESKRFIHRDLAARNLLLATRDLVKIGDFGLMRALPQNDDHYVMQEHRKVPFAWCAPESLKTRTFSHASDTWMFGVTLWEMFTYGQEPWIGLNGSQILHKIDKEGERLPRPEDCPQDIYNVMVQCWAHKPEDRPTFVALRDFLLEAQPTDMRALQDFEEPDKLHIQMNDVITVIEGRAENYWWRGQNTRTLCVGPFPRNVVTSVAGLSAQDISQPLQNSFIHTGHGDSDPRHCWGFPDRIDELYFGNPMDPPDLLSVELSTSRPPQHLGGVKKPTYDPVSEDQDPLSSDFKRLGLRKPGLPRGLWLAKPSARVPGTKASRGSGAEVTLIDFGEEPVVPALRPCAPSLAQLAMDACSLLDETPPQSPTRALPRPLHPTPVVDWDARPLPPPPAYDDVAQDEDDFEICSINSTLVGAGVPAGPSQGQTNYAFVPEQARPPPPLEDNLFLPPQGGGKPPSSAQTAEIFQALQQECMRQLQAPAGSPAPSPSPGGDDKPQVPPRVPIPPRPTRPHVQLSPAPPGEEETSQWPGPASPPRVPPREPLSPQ
UniProt O54967: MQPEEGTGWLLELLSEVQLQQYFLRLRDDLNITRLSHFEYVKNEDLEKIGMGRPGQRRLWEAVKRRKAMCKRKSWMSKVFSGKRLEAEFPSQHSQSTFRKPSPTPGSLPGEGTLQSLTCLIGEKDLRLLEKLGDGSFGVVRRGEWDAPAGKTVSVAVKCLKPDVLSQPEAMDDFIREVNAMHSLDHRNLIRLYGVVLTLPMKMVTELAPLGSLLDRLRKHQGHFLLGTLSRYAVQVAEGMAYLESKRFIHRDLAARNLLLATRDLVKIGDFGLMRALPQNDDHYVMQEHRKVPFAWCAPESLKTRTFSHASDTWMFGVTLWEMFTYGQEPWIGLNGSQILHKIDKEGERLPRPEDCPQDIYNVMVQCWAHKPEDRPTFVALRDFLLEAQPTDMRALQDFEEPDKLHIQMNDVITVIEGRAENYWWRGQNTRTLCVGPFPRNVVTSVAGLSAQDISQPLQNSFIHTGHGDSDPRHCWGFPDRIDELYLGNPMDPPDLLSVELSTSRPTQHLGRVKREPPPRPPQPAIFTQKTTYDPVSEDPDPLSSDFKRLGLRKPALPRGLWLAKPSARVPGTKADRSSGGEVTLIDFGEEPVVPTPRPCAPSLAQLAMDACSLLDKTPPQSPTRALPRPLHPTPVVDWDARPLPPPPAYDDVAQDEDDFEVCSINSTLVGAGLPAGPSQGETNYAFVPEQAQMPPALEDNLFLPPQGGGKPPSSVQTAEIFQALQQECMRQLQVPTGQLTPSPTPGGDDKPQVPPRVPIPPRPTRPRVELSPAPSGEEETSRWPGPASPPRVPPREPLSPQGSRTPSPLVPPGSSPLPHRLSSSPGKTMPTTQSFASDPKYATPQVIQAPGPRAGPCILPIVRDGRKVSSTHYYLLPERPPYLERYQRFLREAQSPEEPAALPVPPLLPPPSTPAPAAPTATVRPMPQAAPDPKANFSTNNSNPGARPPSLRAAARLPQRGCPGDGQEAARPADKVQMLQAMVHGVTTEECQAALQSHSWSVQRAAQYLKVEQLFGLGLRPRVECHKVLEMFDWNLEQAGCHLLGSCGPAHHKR

These results are taken from patent publication US20120053225A1.

For assay [1], the target named is HA-tagged AKT (wild type) (UniProt P31749). Nature of the assay: co-IP with Myc antibodies from HEK293 cells, immunoblot with HA antibodies. On the technique in general: Immunoblotting shows a protein as a band on a membrane.
For assay [2] the target is unchanged. In words: IP of HA-tagged AKT on HA-beads from HEK293T cells co-expressing caAck, Coomassie-stained gel.
Assay [3] shares this target. Nature of the assay: co-IP with anti-Ack1 from MEF1&2KO cells expressing HA-tagged AKT (FIG. 16).
The target is the same in assay [4]. Nature of the assay: in vitro binding assay with purified proteins, IP and immunoblot.
For assay [5] the target is unchanged. Nature of the assay: GST pull-down with purified AKT.
Assay [6] addresses FLAG-tagged androgen receptor (UniProt P10275). Nature of the assay: pull-down of purified proteins on GST-Ack1 glutathione beads, immunoblot.
In assay [7] the target is HA-tagged AKT (wild type) (UniProt P31749). Described as above.
For assay [8], the target named is endogenous AKT of 293T cells (human) (UniProt P31749). In words: co-IP with HA antibodies from 293T cells, immunoblot with AKT antibodies.

For “activated Ack1 (caAck, L487F mutant) (from UniProt Q07912 1-787) (enzyme)”, the binding result in assay [1] and in assay [2] was “binds” each time.

As for “endogenous Ack1 of mouse embryo fibroblasts (from UniProt O54967 1-1055) (enzyme)”, the binding entry in assay [3] is listed as “binds”.

Turning to “purified tagged Ack1 expressed in HEK293T cells (from UniProt Q07912 1-1038) (enzyme)”, the binding entry in assay [4] is “binds”.

For “GST-Ack1 (kinase, SH3 and CRIB domain), expressed in E. coli (from UniProt Q07912 110-476) (enzyme)”, the binding entry in assay [5], in assay [6] and in assay [7] was “binds” throughout.

On to “HA-tagged Ack1 E346K point mutant (from UniProt Q07912 1-1038) (enzyme)”, for which, in assay [8], the binding entry is listed as “binds”.
